Results taken from PMC3521961, “Molecular Basis for Recognition of Dilysine Trafficking Motifs by COPI” (Developmental Cell, 2012).
Numbering of substitutions follows the chain as printed. Results are given in words; binding and its absence hold for the method and conditions named. Some results given as binding are weak or reduced against the parent protein; the word gives no strength. For some of these results: Tags and fused reporters may be left off the sequences shown.

T1: yeast β'-COP 1-304 R15A K17A R59A (yeast (S. cerevisiae)) (UniProt P41811)
T1 sequence: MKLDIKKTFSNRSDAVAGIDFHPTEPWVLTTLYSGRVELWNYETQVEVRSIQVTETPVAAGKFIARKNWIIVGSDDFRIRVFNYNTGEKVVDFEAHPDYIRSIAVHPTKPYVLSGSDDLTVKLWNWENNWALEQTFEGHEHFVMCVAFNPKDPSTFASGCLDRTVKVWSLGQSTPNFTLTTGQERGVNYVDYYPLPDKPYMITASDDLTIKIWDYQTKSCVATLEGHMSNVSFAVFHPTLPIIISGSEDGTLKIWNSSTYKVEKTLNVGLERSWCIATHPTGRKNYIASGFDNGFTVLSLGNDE

T2: yeast β'-COP 1-304 D98A D117A (yeast (S. cerevisiae)) (UniProt P41811)
T2 sequence: T1 sequence with A15R, A17K, A59R, D98A, D117A

T3: yeast β'-COP 1-304 D206A E248A (yeast (S. cerevisiae)) (UniProt P41811)
T3 sequence: T1 sequence with A15R, A17K, A59R, D206A, E248A

B1: yeast β'-COP 1-604 (both WD-repeat domains), untagged (domain or fragment, UniProt P41811 1-604)
chain: MKLDIKKTFSNRSDRVKGIDFHPTEPWVLTTLYSGRVELWNYETQVEVRSIQVTETPVRAGKFIARKNWIIVGSDDFRIRVFNYNTGEKVVDFEAHPDYIRSIAVHPTKPYVLSGSDDLTVKLWNWENNWALEQTFEGHEHFVMCVAFNPKDPSTFASGCLDRTVKVWSLGQSTPNFTLTTGQERGVNYVDYYPLPDKPYMITASDDLTIKIWDYQTKSCVATLEGHMSNVSFAVFHPTLPIIISGSEDGTLKIWNSSTYKVEKTLNVGLERSWCIATHPTGRKNYIASGFDNGFTVLSLGNDEPTLSLDPVGKLVWSGGKNAAASDIFTAVIRGNEEVEQDEPLSLQTKELGSVDVFPQSLAHSPNGRFVTVVGDGEYVIYTALAWRNKAFGKCQDFVWGPDSNSYALIDETGQIKYYKNFKEVTSWSVPMHSAIDRLFSGALLGVKSDGFVYFFDWDNGTLVRRIDVNAKDVIWSDNGELVMIVNTNSNGDEASGYTLLFNKDAYLEAANNGNIDDSEGVDEAFDVLYELSESITSGKWVGDVFIFTTATNRLNYFVGGKTYNLAHYTKEMYLLGYLARDNKVYLADREVHVYGYEISLEVL

How the values were obtained:
[1] = target: yeast β'-COP 1-604 (both WD-repeat domains), untagged (yeast (S. cerevisiae)) (UniProt P41811); test: SEC-MALS; 8 mg/mL sample (100 µL) on an analytical S200 10/300 column, 50 mM Hepes pH 7.4, 100 mM NaCl, 0.4 mL/min; both purified
[2] = target: T1, yeast β'-COP 1-304 R15A K17A R59A (yeast (S. cerevisiae)); test: ITC; Microcal VP-ITC, 10°C; peptide in the syringe at ten times the molar concentration of the β'-COP construct in the cell; 50 mM HEPES (pH 7.4), 100 mM NaCl; both purified
[3] = target: T2, yeast β'-COP 1-304 D98A D117A (yeast (S. cerevisiae)); test: as above
[4] = target: T3, yeast β'-COP 1-304 D206A E248A (yeast (S. cerevisiae)); test: as above

| Binder | binding [1] | binding [2] | binding [3] | binding [4] |
| --- | --- | --- | --- | --- |
| B1 | binds weakly | – | – | – |
| RQEIIKTKLL [KxKxx motif peptide from wild-type yeast Emp47 (…)] | – | no binding (tested: KD < 300 μM (so in the source)) | no binding (tested: KD < 300 μM (so in the source)) | no binding (tested: KD < 300 μM (so in the source)) |
